# Test results published in patent US9439986B2, “Tricarbonyl technetium-99m, rhenium-185/187, or rhenium-188 labeled cyclic RGD derivatives and uses thereof” (BIO IMAGING KOREA CO., LTD., priority 2010, dated 2016).
# For at least one compound, name, drawing or mass did not settle the structure.
# Biological target: T1, integrin αvβ3 (Homo sapiens, UniProt P05106+P06756)
# T1 construct: Human Umbilical Vein Endothelial Cell (HUVEC) known to overexpress integrin αvβ3; endogenous in cells; host or cells: HUVEC
# Experiment: Measurement of affinity (IC50): competitive binding with cRGDyV on HUVEC, gamma counter
# Conditions: 37° C., 1 hour, competition with cRGDyV
compound,measurement,value
"N=C(N)NCCC[C@@H]1NC(=O)[C@H](CCCCNC(=O)CC(NC(=O)CCOCCOCCOCCOCCNC(=O)CN(CC(=O)O)CC(=O)O)C(=O)NCCCC[C@@H]2NC(=O)[C@@H](Cc3ccccc3)NC(=O)[C@H](CC(=O)O)NC(=O)CNC(=O)[C@H](CCCNC(=N)N)NC2=O)NC(=O)[C@@H](Cc2ccccc2)NC(=O)[C@H](CC(=O)O)NC(=O)CNC1=O (stereo partly drawn) [Example 16, (tricarbonyl-[^99mTc]technetium-N-α-bis-hydroxycarbonylmethyl-glycine-CONH(CH2CH2O)4CH2CH2CONH-lysine)-[cyclic (lysine-alginine-glycine-aspartic acid-D-phenylalanine)]2, metal not drawn]",IC50,0.5 nM
